# Measurements from paper PMC7819943, “Rice protein-binding microarrays: a tool to detect cis-acting elements near promoter regions in rice”.
# The chains behind the UniProt entries cited, without tags or fusion partners.
# UniProt Q0JBA9, entry or part of it: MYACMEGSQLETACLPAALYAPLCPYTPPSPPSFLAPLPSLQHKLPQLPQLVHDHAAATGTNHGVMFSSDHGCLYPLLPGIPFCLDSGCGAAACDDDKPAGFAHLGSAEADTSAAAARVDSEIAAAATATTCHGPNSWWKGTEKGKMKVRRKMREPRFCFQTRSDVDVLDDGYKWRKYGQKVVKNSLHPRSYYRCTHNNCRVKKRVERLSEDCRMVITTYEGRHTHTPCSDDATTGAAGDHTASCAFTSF
# The other results are listed elsewhere or left out.
# Biological target: OsWRKY34 (Oryza sativa, UniProt Q0JBA9 1-250)
# Assay: protein-binding microarray (RPBM); PBS, 2% BSA, 51.3 ng/ul salmon testes DNA, 50 uM zinc acetate, 200 nM TF, 25 C, 1 h; high values mean tight binding
# Conditions: protein: recombinant; tags: N-terminal polyhistidine and DsRed monomer fusion (pET32a); label: CyDye5-dUTP incorporated in the synthesized complementary strand; 3' TTTTT single-stranded linker to array surface; dsDNA, one strand shown
# Method in brief: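 The binding signal is fluorescence intensity per array feature (arbitrary units). Readings came from an Axon 4000B scanner after a washed, 2% BSA-blocked, double-stranded custom Agilent array had been incubated for 1 h at 25 °C with 200 nM protein and 50 µM zinc acetate. The protein was a Ni–NTA-purified transcription factor fused N-terminally to polyhistidine and DsRed, expressed in E. coli BL21-CodonPlus.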
row,Sequence,binding signal
1,ATTTTGTTTTTGCGGCAAGCATTATTTTTGGCTTCACTGACGGAGTCACCTAGTGCAG,8160 fluorescence intensity (a.u.)
2,CTGCCTTAGTTTCAGTCCTCTTCGGCTTGAATTTTTTAAGCGGAGTCACCTAGTGCAG,10200 fluorescence intensity (a.u.)
3,CCCTACCGTTAGGCATCTGTTAGTTCTGTTAGTCATACATCGGAGTCACCTAGTGCAG,13000 fluorescence intensity (a.u.)
4,GAAAATTTACTCAATTTTTCACGCGCACACTTTCTAAACTCGGAGTCACCTAGTGCAG,8460 fluorescence intensity (a.u.)
5,TTTCCCGGTATTTGGCTCTCTTTCTTTTTTCTCCTTTTCTCGGAGTCACCTAGTGCAG,8350 fluorescence intensity (a.u.)
6,CAGGCCTGTCTTTGTTCTGTTTGTTTCATCTGTATGAAATCGGAGTCACCTAGTGCAG,9280 fluorescence intensity (a.u.)
7,CATTTCTCTTGGATTGTTTATTGTCACCACTCGCCAGTCACGGAGTCACCTAGTGCAG,11700 fluorescence intensity (a.u.)
8,CCTCCTTATTTTTGCACTTGCAAACTGCATTGTTTCACTTCGGAGTCACCTAGTGCAG,11200 fluorescence intensity (a.u.)
9,TAATGGAGTGTTCTTGTTCATCTCGTCGTTGCAGCTAGCCCGGAGTCACCTAGTGCAG,11000 fluorescence intensity (a.u.)
10,ATATAAAGTTTTTAGACCGTCCTATTTGACCCAGATGATACGGAGTCACCTAGTGCAG,10500 fluorescence intensity (a.u.)
11,GACTACTTCGGCGCGGCTCTGTTCTCGTCGTTCGTGTTCTCGGAGTCACCTAGTGCAG,9160 fluorescence intensity (a.u.)
12,TTAATACCTGGTCTCACCTGTCATACACACATTACGTCTTCGGAGTCACCTAGTGCAG,11100 fluorescence intensity (a.u.)
13,GCTAACTAGCAATATTTTCCTTTTTTCTGGTAGGTTTTTTCGGAGTCACCTAGTGCAG,10900 fluorescence intensity (a.u.)
14,CCTCTAGCTACCCACTGCCCTCTTTATTTCCTAACTCCAACGGAGTCACCTAGTGCAG,9040 fluorescence intensity (a.u.)
15,GTGTCCATGTCCAGTCCTTTGGTTTTGCAACATGTGGTGGCGGAGTCACCTAGTGCAG,8870 fluorescence intensity (a.u.)
16,GTATTGAGGGCTTAATCGTGGTCGTGGGATATTATTTCATCGGAGTCACCTAGTGCAG,8390 fluorescence intensity (a.u.)
17,ACGAATGGTCAAACACATGCTAAAAAGTCAACTGTGTCAACGGAGTCACCTAGTGCAG,9350 fluorescence intensity (a.u.)
18,GCTGTATGCATATGTATGCCTGTATCTGTATCGACAAGGCCGGAGTCACCTAGTGCAG,9150 fluorescence intensity (a.u.)
19,GACCGCCACTCTGCACATCCTATCTTTCGGGTCGAATTTACGGAGTCACCTAGTGCAG,11400 fluorescence intensity (a.u.)
20,CTCGCCACCAAATCCTCCATAGTCCACACCCCACCACCACCGGAGTCACCTAGTGCAG,8170 fluorescence intensity (a.u.)
21,AAGACATTGCATCAACCGTCTTGCCAATCTATGTTTTCTACGGAGTCACCTAGTGCAG,8280 fluorescence intensity (a.u.)

row,Sequence,binding signal
1,ATAATTGACTTATTATACTACTTCCTCCGTTTCACAATGTCGGAGTCACCTAGTGCAG,8380 fluorescence intensity (a.u.)
2,CTCACATCTCCCTTGTTCACTGTTTCTCCTTCACCATTCGCGGAGTCACCTAGTGCAG,9490 fluorescence intensity (a.u.)
3,AATACAAATTTTGACGTAAGCTTGCCCAAAGTTTCTTTACCGGAGTCACCTAGTGCAG,8360 fluorescence intensity (a.u.)
4,TCGTCTCACTTTACTACTCATTCCACTATTGTAAAGTCATCGGAGTCACCTAGTGCAG,8520 fluorescence intensity (a.u.)
5,TATGTCTTTCACTATACCTAAATGTGTGTTTATTTTTATTCGGAGTCACCTAGTGCAG,11400 fluorescence intensity (a.u.)
6,CACAGCCACATACATATGCCTGAATCTTTCTCAGCCTCTTCGGAGTCACCTAGTGCAG,12700 fluorescence intensity (a.u.)
7,CCTCCTCGCCGGCCATCGCGTCGCCGCGCGCCACCCGGTTCGGAGTCACCTAGTGCAG,8900 fluorescence intensity (a.u.)
8,AATTTGTTACTACTGCGGGCTTGTTTGGCACAGCTCACCTCGGAGTCACCTAGTGCAG,8200 fluorescence intensity (a.u.)
9,CACGCAACAGTTGGCAGGCTGAGCTCTCGTGACCCACCTTCGGAGTCACCTAGTGCAG,8590 fluorescence intensity (a.u.)
10,CACACCTGCCGCCGTACCACCAGTGCCGGCTCGCCACGTCCGGAGTCACCTAGTGCAG,8310 fluorescence intensity (a.u.)
11,ACAGCCAGCAACTATATGTTTTCAACAGGCCTGACTCAACCGGAGTCACCTAGTGCAG,10100 fluorescence intensity (a.u.)
12,ATTTGACCCTGTATTAATTATCCCTTCTTAAAGATTTTGTCGGAGTCACCTAGTGCAG,8030 fluorescence intensity (a.u.)
13,CTCACTTACACAAAACATAATTCTCAGTTTGCCATCCACGCGGAGTCACCTAGTGCAG,8570 fluorescence intensity (a.u.)
14,TAAAAATAAGGAGGTGCCCGCTTTTGTCATCCAACGCTACCGGAGTCACCTAGTGCAG,9320 fluorescence intensity (a.u.)
15,AATCTCTCTCATGGCGCGCCTAATCTCTCCTCAATGTGAACGGAGTCACCTAGTGCAG,8900 fluorescence intensity (a.u.)
16,CCACCCAGGCGCGTACCTCCCTAGTAAAAACGCCGCGCCGCGGAGTCACCTAGTGCAG,9570 fluorescence intensity (a.u.)
17,TTGTTAAAGTGTCACTCCAAATTGATATCAAACCGTTTCTCGGAGTCACCTAGTGCAG,8420 fluorescence intensity (a.u.)
18,AACAGTACCGGTAACAGCATACCCAAGCTGCTTCTCCGGACGGAGTCACCTAGTGCAG,9570 fluorescence intensity (a.u.)
19,CTCCGCCATGTTCTCCTGCCGCGAGCTCACCGAGCTTTACCGGAGTCACCTAGTGCAG,10300 fluorescence intensity (a.u.)
20,TATTCGGTTAATGCCTTTGTCGTGATCAATTGACCTTTTGCGGAGTCACCTAGTGCAG,9100 fluorescence intensity (a.u.)
21,TCTGTTAACACAAGTTATTGGTTATTGTTGACCTTTTCTTCGGAGTCACCTAGTGCAG,9270 fluorescence intensity (a.u.)

# Fetched one by one from above (3):
row,Sequence,binding signal
15,AATCTCTCTCATGGCGCGCCTAATCTCTCCTCAATGTGAACGGAGTCACCTAGTGCAG,8900 fluorescence intensity (a.u.)
12,ATTTGACCCTGTATTAATTATCCCTTCTTAAAGATTTTGTCGGAGTCACCTAGTGCAG,8030 fluorescence intensity (a.u.)
3,AATACAAATTTTGACGTAAGCTTGCCCAAAGTTTCTTTACCGGAGTCACCTAGTGCAG,8360 fluorescence intensity (a.u.)

# (further entries)

row,Sequence,binding signal
1,CATTGTTGTGATCTGCATATTTACTTCTGTTTTGATGTTTCGGAGTCACCTAGTGCAG,9160 fluorescence intensity (a.u.)
2,CTTCCTCTTTTCCCTGCTACCCGGTCGGCTCTATAAATACCGGAGTCACCTAGTGCAG,8710 fluorescence intensity (a.u.)
3,GCGGTGGCGGCGGCGGAGGCGGAGGCGGAGGCGGTGTTGACGGAGTCACCTAGTGCAG,11600 fluorescence intensity (a.u.)
4,CGGGAGAATTCGATTGATGTGGTGGGTTCTCTTCTTCTTCCGGAGTCACCTAGTGCAG,10800 fluorescence intensity (a.u.)
5,ACTCGTCGCCGCAACTCTACTTCCTCTTCGGGAACCCCAGCGGAGTCACCTAGTGCAG,9460 fluorescence intensity (a.u.)
6,TCACACGCATCGCTACCTCCTTCCCTCGTCGTCTTCTTCGCGGAGTCACCTAGTGCAG,9870 fluorescence intensity (a.u.)
7,TCCATCCTGCCATCACCGCTTACCCCTGTGCTCAATTAGACGGAGTCACCTAGTGCAG,8150 fluorescence intensity (a.u.)
8,AATGTTTGATACCGTTGACTTTTTAGTACGTGTTTGATCACGGAGTCACCTAGTGCAG,32600 fluorescence intensity (a.u.)
9,CGGTTTCCGTGTCCGATTCTGTTCTTCTCCATATGTTGATCGGAGTCACCTAGTGCAG,12100 fluorescence intensity (a.u.)
10,CTCGTAACCTGTACTACTGCATTTCCATTACATCTAGATACGGAGTCACCTAGTGCAG,11400 fluorescence intensity (a.u.)
11,ACGGACACTTTCTCCCTATGGAGCTTACTGTTTATGTACACGGAGTCACCTAGTGCAG,8600 fluorescence intensity (a.u.)
12,TTTTTTCTTTTTTTTTCTTTCACGCGGCTGGAGACTGGGGCGGAGTCACCTAGTGCAG,8270 fluorescence intensity (a.u.)
13,GTGTCAAACATGCCCTTCGTATAATGCTACTGTTAATTACCGGAGTCACCTAGTGCAG,8300 fluorescence intensity (a.u.)
14,CTCTGCAATCCCCAATACTGAGACTGAGCACACACCCACACGGAGTCACCTAGTGCAG,8370 fluorescence intensity (a.u.)
15,CTTTGTAGTTCAATATTGTTGTTTATACGTTTATACTTTCCGGAGTCACCTAGTGCAG,14200 fluorescence intensity (a.u.)
16,CACGCTCCACTAATCCCTCCCGCCCATTTCCCACGGCCAACGGAGTCACCTAGTGCAG,9830 fluorescence intensity (a.u.)
17,GGTATAAAATGGGGCGGGCTCAATTTTTGTTAATTTTTTTCGGAGTCACCTAGTGCAG,12500 fluorescence intensity (a.u.)
18,TGGGTGTGCTGGCGCTATGATTCGATGATCATGAACTCCTCGGAGTCACCTAGTGCAG,8730 fluorescence intensity (a.u.)
19,TTTTCTCTTTCTCTCTCCAAGGTGGCGGCGGGGTTGGTCCCGGAGTCACCTAGTGCAG,9020 fluorescence intensity (a.u.)
20,TATTCTTCTGATTCATCCTGTTGCTGTCTGTCAAGTGGGACGGAGTCACCTAGTGCAG,10600 fluorescence intensity (a.u.)
21,GCCCTGTTTATTTTGTACTACTACCGATCGGGCACGGATCCGGAGTCACCTAGTGCAG,8650 fluorescence intensity (a.u.)

row,Sequence,binding signal
1,ACTTGTTGGAGCTTCTGCCTTGTGTTGGGCACTGTGATAACGGAGTCACCTAGTGCAG,8320 fluorescence intensity (a.u.)
2,TGAGGGGCTCGGGGATTTGGAAATTTGCGTTTGGTTTTCGCGGAGTCACCTAGTGCAG,8160 fluorescence intensity (a.u.)
3,TTATCAAGACAACATTTTTTTTCCTTTGTGATGTTCTCAACGGAGTCACCTAGTGCAG,9310 fluorescence intensity (a.u.)
4,CCCTAATATTTTCGTGTCTTGGTCCATATCCTCCATAAACCGGAGTCACCTAGTGCAG,8940 fluorescence intensity (a.u.)
5,CGTCATCGCGACGGCTTGATGGATCTCTTGCTGGACACCGCGGAGTCACCTAGTGCAG,8360 fluorescence intensity (a.u.)
6,GCCGTAATGCTTCTGAGTTCTGACTCCTGCTGCGCTCTCACGGAGTCACCTAGTGCAG,9150 fluorescence intensity (a.u.)
7,CCAAGGAGCGTTGACTATTCGGCTTGAATAAAGGTGTGTTCGGAGTCACCTAGTGCAG,11600 fluorescence intensity (a.u.)
8,ATCAAATTTACTCTCTTTTATTTTTCTTCTTGTTTGTCGTCGGAGTCACCTAGTGCAG,10900 fluorescence intensity (a.u.)
9,GCCCCTTGTCCCGCGTCGGCGCGTCCGGCCGGCGCCCGGCCGGAGTCACCTAGTGCAG,10500 fluorescence intensity (a.u.)
10,TTCGTCTTCCACCTCGAGCTCTTACGCATCGTCAGCCATGCGGAGTCACCTAGTGCAG,9910 fluorescence intensity (a.u.)
11,TCATCTCGATGGTGCTAACTCAATCTTTGCATGTTGAATACGGAGTCACCTAGTGCAG,8030 fluorescence intensity (a.u.)
12,CTTCTGTCACCCTCCGTACCATCATCTACATCACCCCTCTCGGAGTCACCTAGTGCAG,8560 fluorescence intensity (a.u.)
13,ATCTTTGCCTCGTCAGGTTTTGCTCATTGGCGTCTCCATGCGGAGTCACCTAGTGCAG,10700 fluorescence intensity (a.u.)
14,GGAATTCACTGTCGGGGTCACACATCTACGTCCTTGTCCACGGAGTCACCTAGTGCAG,11900 fluorescence intensity (a.u.)
15,CTATGCTCCTGACCACTACTATCATCTCGTCTCGTCAGTCCGGAGTCACCTAGTGCAG,12900 fluorescence intensity (a.u.)
16,TCATGTCTCACTGTTCAGAACCTCGCTTCTCGCTTTGACTCGGAGTCACCTAGTGCAG,10700 fluorescence intensity (a.u.)
17,ATCTACCTGCACCAACCGGAGACGCCCGCGCCCAGCTACCCGGAGTCACCTAGTGCAG,8570 fluorescence intensity (a.u.)
18,AACTCCAAGTCTCTATTTTCTCTCTTTCATAAGGTTTCCACGGAGTCACCTAGTGCAG,10000 fluorescence intensity (a.u.)
19,GAAAACAAACTCATCATTAGGGTGTCTATATTCTCGCTCTCGGAGTCACCTAGTGCAG,8030 fluorescence intensity (a.u.)
20,GGCGGCGCGGGTTTAGCGGGATGGGGAGGCGGCGAGTGGCCGGAGTCACCTAGTGCAG,8140 fluorescence intensity (a.u.)
21,TCCATTATGGTATTTCTTAGTTGTTCTTTTGTCTTTTACCCGGAGTCACCTAGTGCAG,8840 fluorescence intensity (a.u.)
